Assay results taken from paper PMC7819943, “Rice protein-binding microarrays: a tool to detect cis-acting elements near promoter regions in rice”.
Some of the results follow.

Molecular target: T1, OsSMF1 (Oryza sativa, UniProt Q6ZLB0 1-436)
T1 sequence: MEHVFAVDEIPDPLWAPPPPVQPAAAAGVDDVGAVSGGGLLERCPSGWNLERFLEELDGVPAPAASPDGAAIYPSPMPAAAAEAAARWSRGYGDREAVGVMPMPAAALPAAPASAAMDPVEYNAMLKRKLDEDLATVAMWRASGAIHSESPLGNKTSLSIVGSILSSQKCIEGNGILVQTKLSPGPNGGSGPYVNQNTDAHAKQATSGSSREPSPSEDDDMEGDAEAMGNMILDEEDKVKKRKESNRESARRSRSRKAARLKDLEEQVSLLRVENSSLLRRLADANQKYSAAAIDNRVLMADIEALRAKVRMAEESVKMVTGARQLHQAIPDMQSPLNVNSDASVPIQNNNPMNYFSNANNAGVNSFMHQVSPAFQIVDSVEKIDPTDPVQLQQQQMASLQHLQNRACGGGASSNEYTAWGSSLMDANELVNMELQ
Experiment: protein-binding microarray (RPBM); PBS, 2% BSA, 51.3 ng/ul salmon testes DNA, 50 uM zinc acetate, 200 nM TF, 25 C, 1 h; high values mean tight binding
Conditions: protein: recombinant; tags: N-terminal polyhistidine and DsRed monomer fusion (pET32a); chain copies: 2; label: CyDye5-dUTP incorporated in the synthesized complementary strand; 3' TTTTT single-stranded linker to array surface; dsDNA, one strand shown
Procedure, shortened: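 Transcription factors were made in E. coli BL21-CodonPlus as N-terminal fusions to a polyhistidine tag and DsRed, then purified on Ni–NTA. After primer extension with Cy5-dUTP and blocking with 2% BSA, a custom Agilent array was exposed for 1 h at 25 °C to 200 nM protein in PBS, 2% BSA, salmon testes DNA and 50 µM zinc acetate. Washed arrays were scanned on an Axon 4000B, and the binding signal is per-feature fluorescence intensity in arbitrary units.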

| Sequence | binding signal |
| --- | --- |
| GAAAGTTAAAAGGACCTCGGTGACACACCCACACAATTTTCGGAGTCACCTAGTGCAG | 5400 fluorescence intensity (a.u.) |
| ACGTACTGGCGTACTGCTGTCTCAGCTTGTCATGGAGATGCGGAGTCACCTAGTGCAG | 4220 fluorescence intensity (a.u.) |
| CCGGTCACCATCGCCGTCATCACCGCGCCCCTCGATCCGACGGAGTCACCTAGTGCAG | 5130 fluorescence intensity (a.u.) |
| TTACTGGTGATATTTATTTTGACAAGTGCTTTTATTTGTACGGAGTCACCTAGTGCAG | 3930 fluorescence intensity (a.u.) |
| CTAACCACGCCCGCCACGTACGCCGCCTCTGGGACCCCGACGGAGTCACCTAGTGCAG | 5440 fluorescence intensity (a.u.) |
| ATATACGATGTTGGTATATTCAGTCACGTATGAGTACTGACGGAGTCACCTAGTGCAG | 3600 fluorescence intensity (a.u.) |
| AGTTGGTAGCAATTGATTGATTCCCCGTCACACGCACGCACGGAGTCACCTAGTGCAG | 3970 fluorescence intensity (a.u.) |
| TGGTATAAGTTGCTGTTCAGTGTCAGGTTGGCATCCCTATCGGAGTCACCTAGTGCAG | 3710 fluorescence intensity (a.u.) |
| CAAGTCAACGACGCGCCTCCACATCACCGCCAAGGCCGTGCGGAGTCACCTAGTGCAG | 5660 fluorescence intensity (a.u.) |
| GCCTCCTCTCGGTGTCAGCTTATCTTCCCGAGCTTCTCTGCGGAGTCACCTAGTGCAG | 4170 fluorescence intensity (a.u.) |
| TATGCTTCTAATCACCTCCCCGCAGCCACAACTTCATAATCGGAGTCACCTAGTGCAG | 6060 fluorescence intensity (a.u.) |
| GAAATCATGTTTATACCGTTACATATTATACAACTATTAGCGGAGTCACCTAGTGCAG | 3690 fluorescence intensity (a.u.) |
| TGCTGTAATTTTGTTCTTGAGCTGTAGCCTGTCTCTCCTGCGGAGTCACCTAGTGCAG | 3490 fluorescence intensity (a.u.) |
| GCCGAGCCACCGCCGCAGATGCTGTGGCAGCAGGCGAGGTCGGAGTCACCTAGTGCAG | 3240 fluorescence intensity (a.u.) |
| AAGAAACGGGTGTGGTGTGAGGCGGGCAGTTTGGGTGGATCGGAGTCACCTAGTGCAG | 3180 fluorescence intensity (a.u.) |
| TCCTCCAAAGTAAATTCAGAGTGACGTGGTCACTAATATGCGGAGTCACCTAGTGCAG | 11500 fluorescence intensity (a.u.) |
| AAAGGCCCAAGCCACCAGCCCACCGCAGGTACATGTCCACCGGAGTCACCTAGTGCAG | 3370 fluorescence intensity (a.u.) |
| TTCTTTTCCCATGGCCTCTGACTATGACATTATTTAAACACGGAGTCACCTAGTGCAG | 3440 fluorescence intensity (a.u.) |
| AGTATCACCCTCTACGTGGTAAGAATCGAGATATCATCTGCGGAGTCACCTAGTGCAG | 3320 fluorescence intensity (a.u.) |
| TCGCCTTGCCCTTCCCCTTGACCTCTTCGTTGACACTGCTCGGAGTCACCTAGTGCAG | 4310 fluorescence intensity (a.u.) |
| CTATATATGTGACGCTGACGTTCCTCATCTCCCAAGCTGCCGGAGTCACCTAGTGCAG | 7040 fluorescence intensity (a.u.) |

| Sequence | binding signal |
| --- | --- |
| CGGCGGCCCTACTATTCACACCCCACGTCGGAGCTCATTGCGGAGTCACCTAGTGCAG | 4270 fluorescence intensity (a.u.) |
| ATTGTTTAGTATTGCGTTATGTTATGTTACTTTTGATACACGGAGTCACCTAGTGCAG | 14400 fluorescence intensity (a.u.) |
| GAATAAATAGGGGTTGATGACGTGGGTCCGGTCGCGGTTTCGGAGTCACCTAGTGCAG | 18500 fluorescence intensity (a.u.) |
| GATAGGTCATTATCTAGATTCAGGACGCCATGTCAGCGTGCGGAGTCACCTAGTGCAG | 10300 fluorescence intensity (a.u.) |
| GATTTTATTCGACGTGTCAGCTGACTCAGATGGTCGGTAGCGGAGTCACCTAGTGCAG | 39100 fluorescence intensity (a.u.) |
| GATGCAGTGACATGCATGTCTCCATCCATGCATTCTCCAACGGAGTCACCTAGTGCAG | 4220 fluorescence intensity (a.u.) |
| TATGGTCTCACCTGTCATACACACATTGCGTTTTGGAGTCCGGAGTCACCTAGTGCAG | 4780 fluorescence intensity (a.u.) |
| TGAATTTCGCTTATGTACATACGTTGCTTTTACCACTAAACGGAGTCACCTAGTGCAG | 3200 fluorescence intensity (a.u.) |
| GGTGCCGGTGGCGAGGCGGTGGCGCTGCGTGCAGGTCATGCGGAGTCACCTAGTGCAG | 3640 fluorescence intensity (a.u.) |
| CAGCCTCCTCGGCCGTCGCCCACGTGTCACGAGTGCGCTCCGGAGTCACCTAGTGCAG | 23500 fluorescence intensity (a.u.) |
| AATGGGTAGTTTATGCTCTACTCTGCTGATTCAGGTGATGCGGAGTCACCTAGTGCAG | 3410 fluorescence intensity (a.u.) |
| ATAACCGTAATTACCGAGCGGTTGCGTGACTTGCTGTTGCCGGAGTCACCTAGTGCAG | 4270 fluorescence intensity (a.u.) |
| AAAGGGACTAAACTTTGGTACCTGTCACATCGGATATTTGCGGAGTCACCTAGTGCAG | 3980 fluorescence intensity (a.u.) |
| TGTATTGTGCCCACCCTTGCCCTCCTAGGCTACACCTCACCGGAGTCACCTAGTGCAG | 4460 fluorescence intensity (a.u.) |
| TCTCCAATCCAAGCTGACTCGACTAAAATGGCTTGATATTCGGAGTCACCTAGTGCAG | 4400 fluorescence intensity (a.u.) |
| CAGTGCTTACACCATTTATGTAATGTGTCTCAATTGCAGTCGGAGTCACCTAGTGCAG | 3150 fluorescence intensity (a.u.) |
| TCCCGTGACACCGGTGCTGTGGTCATCCGCCTTGCAGGCTCGGAGTCACCTAGTGCAG | 27100 fluorescence intensity (a.u.) |
| CATTTAAGGACACTGCCACCCTTTTGCAAGCCACAGGGGACGGAGTCACCTAGTGCAG | 3690 fluorescence intensity (a.u.) |
| TCTATGACTCGTTTATGATTACTTAATCTACCAGGCTCTTCGGAGTCACCTAGTGCAG | 3740 fluorescence intensity (a.u.) |
| GGGAGAGTGGGAGAGTGAGAGCGAGGTGGGGATCTGGGAGCGGAGTCACCTAGTGCAG | 3210 fluorescence intensity (a.u.) |
| ACTTGGGATTTGTTGAGTTGGCAACTTTGCTTGGCTCTGCCGGAGTCACCTAGTGCAG | 4550 fluorescence intensity (a.u.) |

Exported with bars between the fields: part of the list above.
Sequence | binding signal
TGCTGTAATTTTGTTCTTGAGCTGTAGCCTGTCTCTCCTGCGGAGTCACCTAGTGCAG | 3490 fluorescence intensity (a.u.)
GCCGAGCCACCGCCGCAGATGCTGTGGCAGCAGGCGAGGTCGGAGTCACCTAGTGCAG | 3240 fluorescence intensity (a.u.)
AAGAAACGGGTGTGGTGTGAGGCGGGCAGTTTGGGTGGATCGGAGTCACCTAGTGCAG | 3180 fluorescence intensity (a.u.)
TCCTCCAAAGTAAATTCAGAGTGACGTGGTCACTAATATGCGGAGTCACCTAGTGCAG | 11500 fluorescence intensity (a.u.)
AAAGGCCCAAGCCACCAGCCCACCGCAGGTACATGTCCACCGGAGTCACCTAGTGCAG | 3370 fluorescence intensity (a.u.)
TTCTTTTCCCATGGCCTCTGACTATGACATTATTTAAACACGGAGTCACCTAGTGCAG | 3440 fluorescence intensity (a.u.)
AGTATCACCCTCTACGTGGTAAGAATCGAGATATCATCTGCGGAGTCACCTAGTGCAG | 3320 fluorescence intensity (a.u.)
TCGCCTTGCCCTTCCCCTTGACCTCTTCGTTGACACTGCTCGGAGTCACCTAGTGCAG | 4310 fluorescence intensity (a.u.)
CTATATATGTGACGCTGACGTTCCTCATCTCCCAAGCTGCCGGAGTCACCTAGTGCAG | 7040 fluorescence intensity (a.u.)
CGGCGGCCCTACTATTCACACCCCACGTCGGAGCTCATTGCGGAGTCACCTAGTGCAG | 4270 fluorescence intensity (a.u.)
ATTGTTTAGTATTGCGTTATGTTATGTTACTTTTGATACACGGAGTCACCTAGTGCAG | 14400 fluorescence intensity (a.u.)
GAATAAATAGGGGTTGATGACGTGGGTCCGGTCGCGGTTTCGGAGTCACCTAGTGCAG | 18500 fluorescence intensity (a.u.)
